Test results published in US6743640B2, “Fluorescent polymer-QTL approach to biosensing” (priority 2000, dated 2004).

Columns and labels:
[1] = Quenching of mixture of Laponite-supported polymer 2 and dissolved polymer 1; conditions: polymer 2 on Laponite clay, polymer 1 in aqueous solution
[2] = Quenching of polystyrene bead-supported polymer 1; conditions: for quenching of polystyrene-supported polymer 1: polymer 1 coated on cationic Source 30 Q polystyrene beads
[3] = Quenching of polystyrene bead-supported polymer 2; conditions: polymer 2 coated on anionic Source 30 S polystyrene beads

Row | Compound | quenching in mixture of supported polymer 2 and dissolved polymer 1 [1] | quenching of polystyrene-supported polymer 1 [2] | quenching of polystyrene-supported polymer 2 [3] | change in emission of unquenched polystyrene-supported polymer 1 ([2]; added to unquenched supported polymer 1)
1 | C[n+]1ccc(-c2cc[n+](C)cc2)cc1 [viologen 3, methyl viologen] | only quenched the fluorescence of polymer 1 | not | – | –
2 | anthraquinone disulfonate [anthraquinone 5] | selective quenching of the fluorescence of polymer 2 | quenched | not | –
3 | avidin: 66 KD protein avidin, four biotin binding sites | – | – | – | no detectable change in the polymer emission
